The other results are listed elsewhere or left out. Shown are side measurements of this screen, not its main read-out; they come without a call. The list favours compounds with an active or inconclusive main result. Potencies come from curve fits of mixed quality, noted in brackets.
Test: qHTS Assay for Lipid Storage Modulators in Drosophila S3 Cells;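 as to cell number change: cells counted by Cell Tracker Red CMTPX staining in the red channel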
Conditions: BODIPY lipid droplet fluorescence, 18-24 h; for cell number change: measured here: cell count max response, cells fed with added oleic acid
Method in brief: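 Laser-scanning cytometry quantifies lipid droplet accumulation (500–530 nm total intensity; droplet/cell object ratio) in oleic acid-fed (400 uM added) Drosophila S3 cells treated with a concentration series. 20 uM Triacsin C defined 100% inhibition.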

[1] = measured here: cell number channel AC50, cells fed with added oleic acid
[2] = measured here: lipid fluorescence (Fed channel) AC50, cells fed with added oleic acid

With Cc1cccc2c1N(C(=O)CN1C(=O)c3ccccc3C1=O)C(C)(C)c1ssc(=S)c1-2 the cell number change was -52.7%, the AC50 [1] was 3.66 µM [falling, full curve, poor fit] and the AC50 [2] was 2.59 µM [falling, full curve].
In the case of CCc1ccc2c(c1)/C(=C/C(=O)c1cccs1)C(=O)N2, the cell number change is reported as -91.1% and the AC50 [1] is reported as 29.1 µM [falling, single point].
For O=C(NNC(=O)C1CC=CCC1)c1ccccc1Cl (stereo not drawn), the cell number change was 1.65% and the AC50 [2] was 2.91 µM [rising, full curve].
With Cc1onc(-c2c(F)cccc2Cl)c1C(=O)ONC(=O)c1ccco1 the cell number change was 20.7% and the AC50 [2] was 0.00411 µM [falling, full curve, poor fit].
In the case of CCOC(=O)C1CCN(C(=O)CSc2ccccc2Cl)CC1, the cell number change is reported as 18.5%, the AC50 [1] is reported as 0.00461 µM [falling, full curve, poor fit] and the AC50 [2] is reported as 0.00461 µM [falling, full curve, poor fit].
Compound Cc1ccc(N2CC(C(=O)NCCN3CCOCC3)CC2=O)cc1 (stereo not drawn) has a cell number change of 8.97%.
In the case of COc1cc(C(=O)NCCCCCCNC(=O)c2cc(OC)c(OC)c(OC)c2)cc(OC)c1OC, the cell number change is reported as 12.6%.
With Cc1occc1C(=O)NNC(=O)COc1ccc(Br)cc1Br the cell number change was 7.62% and the AC50 [1] was 0.0411 µM [rising, full curve, poor fit].
With COC1=CC2(O)CCCC2=CC1=O (stereo not drawn) the cell number change was -1.29%.
With O=C1N=C(N2CCN(c3ccccc3)CC2)S/C1=C\c1ccco1 the cell number change was 80.1% and the AC50 [1] was 20.6 µM [rising, partial curve].
For Cc1ccc2nc(NC(=O)C3CCCN(S(=O)(=O)c4cccnc4)C3)sc2c1 (stereo not drawn), the cell number change was -17.9% and the AC50 [2] was 23.1 µM [falling, single point].
In the case of C#CCOCCOCCOCCNc1nc(N2CCN(C(=O)CCCCCCCCCCNC(=O)[C@H]([C@@H](C)CC)n3cc(CCCCN=C(N)N)nn3)CC2)nc(N2CCN(C(=O)CCCCCCCCCCNC(=O)[C@H](CCCN=C(N)N)n3cc(C[C@@H](C)CC)nn3)CC2)n1, the cell number change is reported as -91.9%, the AC50 [1] is reported as 16.4 µM [falling, partial curve, poor fit] and the AC50 [2] is reported as 2.59 µM [falling, single point].
In the case of CCCCc1c(O)nc2sc3cc(OC)ccc3n2c1=O, the AC50 [2] is reported as 10.3 µM [falling, partial curve].
For O=[N+]([O-])c1ccc(-c2nc(Nc3cccc(O)c3)c3ccccc3n2)cc1, the cell number change was -24.3% and the AC50 [2] was 29.1 µM [falling, single point].
For Cc1ccc(C2=Nc3c(ccc4ccccc34)C(c3ccncc3)=NN2)cc1, the cell number change was -65%, the AC50 [1] was 20.6 µM [falling, single point] and the AC50 [2] was 20.6 µM [falling, partial curve].
In the case of CCC(=O)Nc1cccc(-c2nc3ccccc3c(=O)o2)c1, the cell number change is reported as 48.9%, the AC50 [1] is reported as 29.1 µM [rising, single point] and the AC50 [2] is reported as 0.731 µM [rising, single point].
With Cc1cccc(-c2noc(CN(C(=O)CCc3ccccc3)C(C)C)n2)c1 the cell number change was -6.16% and the AC50 [2] was 10.3 µM [rising, single point].
In the case of C=CCOC(=O)C(C#N)c1nc2ccccc2nc1N1CCN(Cc2ccc3c(c2)OCO3)CC1 (stereo not drawn), the cell number change is reported as 27.4% and the AC50 [1] is reported as 0.164 µM [rising, full curve, poor fit].
For COc1ccc2[nH]c(=O)c(CN(C(=O)C3CCCO3)c3ccc(C)c(C)c3)cc2c1 (stereo not drawn), the cell number change was -2.46% and the AC50 [2] was 0.092 µM [falling, full curve, poor fit].
In the case of CC(=O)NC(=S)Nc1ccccc1N1CCCCC1, the cell number change is reported as -22.8%, the AC50 [1] is reported as 4.11 µM [falling, full curve, poor fit] and the AC50 [2] is reported as 1.64 µM [falling, partial curve, poor fit].
In the case of NC(=O)C1CCN(C2CC(=O)NC2=O)CC1 (stereo not drawn), the cell number change is reported as 7.91% and the AC50 [2] is reported as 18.4 µM [rising, single point].
In the case of CCC(=O)N1N=C(c2ccccc2)CC1c1ccc([N+](=O)[O-])cc1 (stereo not drawn), the cell number change is reported as -2.36% and the AC50 [2] is reported as 1.3 µM [rising, full curve, poor fit].
In the case of CCCN1C(=O)c2cc(C(=O)Nc3ccccc3CC)ccc2C1O (stereo not drawn), the cell number change is reported as 9.74% and the AC50 [2] is reported as 3.66 µM [rising, single point].
For O=C(CCCCCn1c(=S)[nH]c2ccc(N3CCOCC3)cc2c1=O)NCc1ccccc1Cl, the cell number change was -17.5%.
In the case of CNC(C)C#Cc1c(-c2cc(OC)c(OC)c(OC)c2)noc1C (stereo not drawn), the cell number change is reported as 40.8% and the AC50 [1] is reported as 29.1 µM [rising, single point].
In the case of Cc1ccc(NC(=O)COC(=O)C2CC3CCCC(C2)C3=O)c([N+](=O)[O-])c1 (stereo not drawn), the cell number change is reported as -14.2% and the AC50 [2] is reported as 0.0731 µM [falling, full curve, poor fit].
With CC(=O)Nc1ccc(S(=O)(=O)N2CCC(C(=O)O)CC2)cc1 the cell number change was 37.9% and the AC50 [1] was 29.1 µM [rising, single point].
For CN(C)CCNC(=O)C(=O)c1c(-c2ccccc2)cc2ccccn12, the cell number change was -97.3%, the AC50 [1] was 29.1 µM [falling, partial curve, poor fit] and the AC50 [2] was 29.1 µM [falling, partial curve, poor fit].
For CC(C)(C)N1CC2([N+](=O)[O-])CN(C(C)(C)C)CC([N+](=O)[O-])(C1)C2, the cell number change was -32.6%, the AC50 [1] was 0.92 µM [falling, full curve, poor fit] and the AC50 [2] was 1.64 µM [falling, partial curve, poor fit].
For Cc1sc2nc(SCCN(C)C)n(-c3ccccc3)c(=O)c2c1-c1ccc(F)cc1, the cell number change was 39%, the AC50 [1] was 14.6 µM [rising, partial curve, poor fit] and the AC50 [2] was 29.1 µM [rising, single point].
For COc1ccccc1CCn1c(N)c(C#N)c2nc3ccccc3nc21, the AC50 [2] was 1.46 µM [rising, partial curve].
With COc1cc(/C=N/NC(=O)c2ccncc2)ccc1OCc1cnc(Cl)s1 the cell number change was 8.6% and the AC50 [1] was 1.64 µM [falling, single point].
For C=CCS(=O)(=O)N1CCCC(Cc2ccccc2C)(C(=O)OCC)C1 (stereo not drawn), the cell number change was -1.48%.
In the case of Cc1cc(NC(=O)c2ccc(Cl)cc2)no1, the cell number change is reported as -2.68% and the AC50 [2] is reported as 13 µM [falling, single point].
For CCOC(=O)c1sc2ncn(/N=C/c3ccccn3)c(=O)c2c1C, the cell number change was 74.5%, the AC50 [1] was 0.731 µM [rising, full curve] and the AC50 [2] was 0.326 µM [rising, partial curve].
